Taken from: PubChem BioAssay AID504764 (Drosophila RNAi Screening Center, 2011)
The deposit covers about 22,000 reagents; this is a random part of those that have a named target and a result. Over the whole deposit, 403 (1.9%) were called active. 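Unnormalised raw counts per well; ratio z-scores behind the hit calls and whether each hit raises or lowers signal are not deposited.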 Reagents against one gene are numbered here. A plus sign joins genes that one reagent is predicted to hit. Not stated in the record: the amount of reagent.

- Test: 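Genome-wide screen for regulators of Notch-driven gene expression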 (primary screen)
- Cells: Drosophila Kc167 cells
- Reagent: long dsRNA against Drosophila genes
- Duration: about 5 days (4 days dsRNA, then 24 h after transfection)
- Treatment: transfection of constitutively active membrane-tethered Notch lacking the extracellular domain, read 24 h later
- Measured: 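Light from a Notch-responsive E(spl)m3 luciferase reporter under active Notch, with control-promoter and no-Notch reporter wells to normalise; raw counts from paired wells a and b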
- Scale: induced reporter light, run 1, well a and induced reporter light, run 1, well b: higher = more light from the Notch target reporter with active Notch; control promoter light, run 1, well a and control promoter light, run 1, well b: higher = more light from the viral control promoter (cell number, transfection, viability); uninduced reporter light, run 1, well a: higher = more light from the Notch target reporter without active Notch
- Call rule: 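Hit if the duplicate-averaged log2 ratio of induced to control-promoter light gives a plate-wise z beyond ±2, or induced to uninduced beyond ±1.8; weak-control or discordant-duplicate wells dropped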
- Calls: active = modifier hit (raised or lowered Notch signal); inactive = not a hit

target | reagent no. | induced reporter light, run 1, well a | induced reporter light, run 1, well b | control promoter light, run 1, well a | control promoter light, run 1, well b | uninduced reporter light, run 1, well a | Outcome
Spn38F (Serpin 38F) | 1 | 64405 | 49435 | 59365 | 54155 | 3755 | inactive
Su(var)3-9 (Suppressor of variegation 3-9) | 1 | 92510 | 76825 | 89340 | 61805 | 4565 | inactive
TotZ (Turandot Z) | 1 | 47885 | 49125 | 73550 | 46115 | 6130 | inactive
HLH3B (Helix loop helix protein 3B) | 1 | 95365 | 1.03e5 | 1.79e5 | 1.87e5 | 6265 | inactive
Gr98a (Gustatory receptor 98a) | 1 | 2.03e5 | 1.84e5 | 2.64e5 | 2.75e5 | 13510 | inactive
ems (empty spiracles) | 1 | 1.96e5 | 1.59e5 | 1.56e5 | 1.62e5 | 14145 | inactive
Rpp14b (Ribonuclease P/MRP subunit p14 b) | 1 | 1.55e5 | 1.23e5 | 2.04e5 | 2.22e5 | 13720 | inactive
Amy-d (Amylase distal) | 1 | 1.04e5 | 91595 | 87995 | 1.06e5 | 8055 | inactive
CG2955 | 1 | 1.90e5 | 1.95e5 | 1.46e5 | 1.90e5 | 16580 | inactive
Eig71Ee (Ecdysone-induced gene 71Ee) | 1 | 2.07e5 | 2.10e5 | 2.94e5 | 2.96e5 | 8870 | inactive
CG13751 | 1 | 1.96e5 | 2.22e5 | 2.27e5 | 2.45e5 | 19355 | inactive
cutlet | 1 | 1.71e5 | 1.80e5 | 2.00e5 | 2.20e5 | 11828 | inactive
Mst57Dc (Male-specific transcript 57Dc) | 1 | 2.03e5 | 1.87e5 | 2.15e5 | 2.27e5 | 15392 | inactive
Fsn (F-box synaptic protein) | 1 | 1.35e5 | 1.62e5 | 1.52e5 | 1.50e5 | 13970 | inactive
Np (Notopleural) | 1 | 1.64e5 | 1.59e5 | 2.29e5 | 2.47e5 | 16170 | inactive
Np (Notopleural) | 2 | 2.14e5 | 1.83e5 | 1.87e5 | 1.84e5 | 16878 | inactive
Np (Notopleural) | 3 | – | – | – | – | – | inactive
be (ben) | 1 | 2.25e5 | 1.75e5 | 2.31e5 | 2.15e5 | 12890 | inactive
be (ben) | 2 | 97920 | 1.23e5 | 1.15e5 | 82365 | 15325 | inactive
be (ben) | 3 | 82555 | 79110 | 99010 | 84250 | 9715 | inactive

Look-ups from the entries so far.
be (ben) #3, control promoter light, run 1, well a: 99010
Value of cutlet under “uninduced reporter light, run 1, well a”: 11828
For “control promoter light, run 1, well b”, CG2955 shows 1.90e5

More records:
target | reagent no. | induced reporter light, run 1, well a | induced reporter light, run 1, well b | control promoter light, run 1, well a | control promoter light, run 1, well b | uninduced reporter light, run 1, well a | Outcome
Sik2 (Salt-inducible kinase 2) | 1 | 1.41e5 | 1.41e5 | 2.15e5 | 2.48e5 | 10265 | inactive
CG17028 | 1 | 1.76e5 | 1.41e5 | 1.90e5 | 1.61e5 | 10042 | inactive
CG11857 | 1 | 1.61e5 | 1.95e5 | 2.47e5 | 2.01e5 | 13835 | inactive
Strump (Strumpellin) | 1 | 1.63e5 | 1.46e5 | 2.04e5 | 2.21e5 | 8665 | inactive
CG31827 + CG18478 | 1 | 1.17e5 | 1.45e5 | 1.50e5 | 1.90e5 | 9615 | inactive
H (Hairless) | 1 | 2.27e5 | 2.00e5 | 2.05e5 | 2.29e5 | 31460 | active
CG3847 | 1 | 74505 | 78725 | 83160 | 73125 | 5960 | inactive
CG3847 | 2 | 1.94e5 | 1.89e5 | 1.88e5 | 1.89e5 | 15725 | inactive
CG5783 | 1 | 1.71e5 | 1.64e5 | 1.57e5 | 1.79e5 | 11740 | inactive
pasha (partner of drosha) | 1 | 94825 | 1.32e5 | 1.09e5 | 1.30e5 | 7835 | inactive
CG9649 | 1 | 1.46e5 | 1.12e5 | 87515 | 96180 | 9245 | inactive
CSN1a (COP9 signalosome subunit 1a) | 1 | 1.04e5 | 1.13e5 | 1.23e5 | 1.31e5 | 11040 | inactive
qjt (quijote) | 1 | 2.22e5 | 2.25e5 | 2.89e5 | 2.85e5 | 7460 | inactive
CG13725 | 1 | 1.58e5 | 1.39e5 | 2.28e5 | 2.24e5 | 10820 | inactive
